Measured values taken from article PMC6372160, “Biophysical and structural characterization of a zinc-responsive repressor of the MarR superfamily” (PLoS ONE, 2019).

Amino acid sequences for entries named in this document (tags omitted). A change or cut given only in a name is not applied to a line headed by its entry.
UniProt A2RNS2: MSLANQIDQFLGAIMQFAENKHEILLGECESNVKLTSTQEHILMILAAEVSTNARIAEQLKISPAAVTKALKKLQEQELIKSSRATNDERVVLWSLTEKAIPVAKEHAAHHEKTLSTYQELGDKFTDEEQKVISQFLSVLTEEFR

Biological target: T1, ZitR (ZitRMG), holo Zn(II) form S2A,A4R,D8E (Lactococcus lactis subsp. cremoris MG1363) (UniProt A2RNS2)
T1 sequence (looked up): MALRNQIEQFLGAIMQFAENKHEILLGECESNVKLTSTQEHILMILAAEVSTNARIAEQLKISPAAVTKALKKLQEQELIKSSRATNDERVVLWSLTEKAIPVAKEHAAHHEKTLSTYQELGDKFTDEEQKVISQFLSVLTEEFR
Assay: ITC
Conditions: 100 uM ZnSO4, ITC: 20 mM Tris-HCl pH 7.0, 150 mM NaCl, ~20 uM ZitR titrated with 270 uM dsDNA, temperature not stated, recombinant protein, residues 1-145, protein details: untagged, letters put together from the description

| Sequence | Kd [nM] |
| --- | --- |
| AATGTTAACTGGTTGACAT / TATGTCAACCAGTTAACAT [Palindrome 1 of Pzit, -35 box] | 200 |
| ATAATTAACCAGTAAACTAA / TTTAGTTTACTGGTTAATTA [Palindrome 2 of Pzit, -10 box] | 600 |

For at least one entry, the source does not settle the construct or the ends of the probe. Where a protein sequence is shown, tags need not be part of it.
